From ChEMBL document CHEMBL1133658 (J Med Chem, 2000)

The chains behind the UniProt entries cited, without tags or fusion partners.
UniProt P02550, whole entry, looked up: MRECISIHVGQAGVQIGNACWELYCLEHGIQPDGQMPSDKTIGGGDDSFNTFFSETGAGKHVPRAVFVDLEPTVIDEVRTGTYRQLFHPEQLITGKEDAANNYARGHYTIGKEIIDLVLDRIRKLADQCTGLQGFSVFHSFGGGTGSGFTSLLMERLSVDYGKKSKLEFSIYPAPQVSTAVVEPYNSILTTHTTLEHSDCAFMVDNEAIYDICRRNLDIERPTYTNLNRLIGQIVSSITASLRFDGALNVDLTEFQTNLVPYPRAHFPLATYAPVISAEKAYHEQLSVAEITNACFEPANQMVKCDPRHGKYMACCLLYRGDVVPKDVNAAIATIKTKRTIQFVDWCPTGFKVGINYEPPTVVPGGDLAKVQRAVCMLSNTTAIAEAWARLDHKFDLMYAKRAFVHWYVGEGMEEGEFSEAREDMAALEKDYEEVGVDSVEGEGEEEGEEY

Target: Tubulin alpha chain (Sus scrofa, UniProt P02550)

| Structure (SMILES) | IC50 |
| --- | --- |
| COc1cc2c(c(OC)c1OC)-c1ccc(SC)c(=O)cc1[C@@H](NC(C)=O)CC2 [THIOCOLCHICINE] | 0.646 µM |
| COc1cc2c(c(OC)c1OC)-c1ccc(SC)c(=O)cc1[C@H](NC(C)=O)CC2 | 9.77 µM |
